Measurements: patent publication US20110086042A1
No constants are given. Whether binding was seen depends on the method and setting. Binding can be weak; no strength is given.

Molecular target: α-tubulin
Experiment: co-localisation in rod-like structures of cells that overexpress full-length centrobin

binding: binds
B1: centrobin α (full-length, 903 amino acids) (protein)
chain: MATSADSPSSPLGAEDLLSDSSEPPGLNQVSSEVTSQLYASLRLSRQAEATARAQLYLPSTSPPHEGLDGFAQELSRSLSVGLEKNLKKKDGSKHIFEMESVRGQLQTMLQTSRDTAYRDPLIPGAGSERREEDSFDSDSTATLLNTRPLQDLSPSSSAQALEELFPRYTSLRPGPPLNPPDFQGLRDALDSEHTRRKHCERHIQSLQTRVLELQQQLAVAVAADRKKDTMIEQLDKTLARVVEGWNRHEAERTEVLRGLQEEHQAAELTRSKQQETVTRLEQSLSEAMEALNREQESARLQQRERETLEEERQALTLRLEAEQQRCCVLQEERDAARAGQLSEHRELETLRAALEEERQTWAQQEHQLKEHYQALQEESQAQLEREKEKSQREAQAAWETQHQLALVQSEVRRLEGELDTARRERDALQLEMSLVQARYESQRIQLESELAVQLEQRVTERLAQAQESSLRQAASLREHHRKQLQDLSGQHQQELASQLAQFKVEMAEREERQQQVAEDYELRLAREQARVCELQSGNQQLEEQRVELVERLQAMLQAHWDEANQLLSTTLPPPNPPAPPAGPSSPGPQEPEKEERRVWTMPPMAVALKPVLQQSREARDELPGAPPVLCSSSSDLSLLLGPSFQSQHSFQPLEPKPDLTSSTAGAFSALGAFHPDHRAERPFPEEDPGPDGEGLLKQGLPPAQLEGLKNFLHQLLETVPQNNENPSVDLLPPKSGPLTVPSWEEAPQVPRIPPPVHKTKVPLAMASSLFRVPEPPSSHSQGSGPSSGSPERGGDGLTFPRQLMEVSQLLRLYQARGWGALPAEDLLLYLKRLEHSGTDGRGDNVPRRNTDSRLGEIPRKEIPSQAVPRRLATAPKTEKPPARKKSGHPAPSSMRSRGGVWR
